For this experiment, the target named is T1, snail family transcriptional repressor 2 (SNAI2) (human (endogenous in SW-1990)) (UniProt O43623).
T1 sequence: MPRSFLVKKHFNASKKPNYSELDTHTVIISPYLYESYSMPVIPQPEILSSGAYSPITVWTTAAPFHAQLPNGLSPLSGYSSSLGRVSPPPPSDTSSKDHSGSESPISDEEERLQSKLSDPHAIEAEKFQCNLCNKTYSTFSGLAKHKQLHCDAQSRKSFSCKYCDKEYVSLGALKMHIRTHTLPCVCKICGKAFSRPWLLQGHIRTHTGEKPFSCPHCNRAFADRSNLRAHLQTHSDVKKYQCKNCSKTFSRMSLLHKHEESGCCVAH
Description: co-IP; SW-1990 cell lysate, 1.0 mg total protein incubated with anti-IgG, anti-SNAI2 and anti-CDCA8 at 4 °C overnight; agarose beads 2 h at 4 °C; western blotting. Background: In western blotting, separated proteins are transferred to a membrane and probed.

Results are given in words; binding and its absence hold for the method and conditions named. Binding seen in cells or lysates may run through a third protein. Some results given as binding are weak or reduced against the parent protein; the word gives no strength.

The values below come from article PMC9657053.

B1: Cell division cycle associated 8 (CDCA8) (protein, UniProt Q53HL2 1-280)
chain: MAPRKGSSRVAKTNSLRRRKLASFLKDFDREVEIRIKQIESDRQNLLKEVDNLYNIEILRLPKALREMNWLDYFALGGNKQALEEAATADLDITEINKLTAEAIQTPLKSAKTRKVIQVDEMIVEEEEEEENERKNLQTARVKRCPPSKKRTQSIQGKGKGKRSSRANTVTPAVGRLEVSMVKPTPGLTPRFDSRVFKTPGLRTPAAGERIYNISGNGSPLADSKEIFLTVPVGGGESLRLLASDLQRHSIAQLDPEALGNIKKLSNRLAQICSSIRTHK
On to B1, for which the binding entry is “binds”.
